Test results: the supplement of paper PMC3334620
Whole data set: some 33,000 sequences, median “E-score (-0.5 to 0.5)” near -0.0034, cut for the highest 2% near 0.25. This is one part of the list.

Target: T1, Yap3 (UniProt P38749)
T1 sequence: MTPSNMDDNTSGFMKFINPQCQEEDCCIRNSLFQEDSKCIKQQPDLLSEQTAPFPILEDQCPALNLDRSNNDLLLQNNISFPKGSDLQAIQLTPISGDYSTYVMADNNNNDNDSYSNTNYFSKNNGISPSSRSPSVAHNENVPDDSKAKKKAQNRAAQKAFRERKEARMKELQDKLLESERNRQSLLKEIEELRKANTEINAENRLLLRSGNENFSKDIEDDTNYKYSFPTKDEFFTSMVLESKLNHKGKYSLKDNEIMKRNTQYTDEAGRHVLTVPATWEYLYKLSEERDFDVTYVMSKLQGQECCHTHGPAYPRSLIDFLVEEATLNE
Assay: PBM E-score (8-mer binding enrichment) (E-score (-0.5 to 0.5)); higher = stronger / more preferred TF binding
Conditions: protein concentration: 100 nM; construct: GST-full length
How it was run: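 Each ungapped eight-base word and its reverse complement, pooled, received an E-score from the Universal PBM Analysis Suite. Underlying scans, normalised with masliner, recorded fluorescent anti-GST bound to GST-tagged yeast transcription factors. These were applied at about 100-200 nM to universal all-10-mer Agilent arrays double-stranded by primer extension.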

Sequence	PBM E-score
GTTAGATA	0.164
CCGTAAGG	-0.277
ACTAGGCC	-0.223
TGACAACA	0.0887
GAGCAGAC	-0.0206
CACGCGAG	0.0558
AGTAAAGG	0.108
AGAGGTGG	-0.00498
GAACCTCC	-0.15
CAGCTCCC	-0.367
GGTGACGA	0.0762
AATATCTA	0.0725
ATTAAACA	0.0847
ATTAGGCG	0.0783
AATAATCT	0.31
TGACCAAA	0.0457
ATGAACGA	0.0136
ACTGAATG	0.0659
CGCCTACG	-0.0505
GGAACCTA	0.014
AAAGACCA	-0.153
TTCAGGAA	-0.0518
CTTGCCAA	-0.0286
CACCTCAA	-0.0307
CCCTAGGG	-0.322

Sequence	PBM E-score
ATGACATC	0.143
ACGACTAA	-0.0256
CTAAACAC	0.0338
GCCAGCAA	-0.146
CCCGTTGA	-0.0597
GGCGGACC	-0.308
TGGATACA	0.0298
CATCGGGC	-0.243
AAAGTAAG	-0.0491
ACGACTAT	0.114
CTCATCCC	-0.199
GGCGGGAA	-0.0118
ACCGCCCT	-0.117
CAGATTGC	0.0178
AGGGATCG	-0.251
CAAGGCCA	-0.0166
CGTGAGGC	-0.0191
CACCTCAG	-0.102
CATCGATA	0.237
GTGGGAAC	-0.0463
CAGCTTCC	-0.14
GGCGCCAC	-0.177
ACACCCCC	-0.289
CGCCGACG	-0.0697
GATTCCGC	-0.0196

Sequence	PBM E-score
TCTAGGCA	-0.102
CTGTCTAA	-0.014
CACGGTCG	-0.221
TCCAAGCA	0.0609
GCTGGTCC	-0.102
AATATGTC	0.111
ACTTGTAA	0.0694
AAATAAGC	0.12
CGCGAGGA	0.00311
GGCTTTTA	-0.197
ACGGTGGG	-0.0405
ATCGTAAC	0.0721
CGGTACCG	0.0451
ATTTAGTC	0.167
GCCAACTA	-0.181
CCATTCGC	-0.0811
TGTCGTAA	0.0512
CAGAGGAA	-0.0763
CCCGTGTC	-0.228
CGAAAAGC	-0.107
AATCGCGA	0.255
TATGTCAA	0.228
CCGATCCG	-0.0465
AGACGGCA	-0.0106
ATGGCGCC	-0.199

Sequence	PBM E-score
AAGTCGCA	0.0681
CCATAAGC	-0.0492
AAGCGGGC	-0.158
ATACCTCG	0.125
CCTATCGC	-0.197
AAGCCCGC	-0.173
AGCCATCG	-0.0643
GACTGATC	-0.0446
GATTGACC	-0.0938
ACGAGCCA	0.00329
AGTACCGA	0.0518
AGAGCGCC	-0.0699
CCACAGGC	-0.379
GCCACAAC	0.151
CCTGTGCA	-0.125
CAGACCAG	-0.0471
CCAAAGAA	0.124
AGACATTC	-0.0855
AGGGTCTG	-0.248
GATTGACA	0.0145
AGTCTAAT	0.0429
CCGGTAAA	0.0746
AAGAGAGC	-0.218
CAGCACTG	-0.139
GGCAAGGA	-0.0794

Sequence	PBM E-score
CACTGTAG	0.0623
ACTCGACC	-0.198
ATAGATAA	0.221
AACCGAGG	-0.162
CGTTCCTC	-0.138
CACTGTTA	-0.016
CATCAGTA	0.0801
AGCTGAAT	0.152
CCTAACGC	-0.0964
CATCATGA	-0.014
ACGACTCC	-0.0211
AACCGCAG	-0.157
CATTGTAA	0.172
ACCGCTGC	-0.215
ATAACTTA	0.147
CATTAACA	0.13
CGACTGAG	-0.0972
AGTGGAAT	0.0743
CCCCGCCG	-0.279
GAGTTGTA	0.0824
ATCTGCCA	0.036
CTCGCTTA	0.177
CCACGCAC	0.0214
ATATGGTC	0.0553
AAATTGTT	0.183

An excerpt of these results, bar-delimited:
Sequence | PBM E-score
CTAAACAC | 0.0338
GCCAGCAA | -0.146
CCCGTTGA | -0.0597
GGCGGACC | -0.308
TGGATACA | 0.0298
CATCGGGC | -0.243
AAAGTAAG | -0.0491
ACGACTAT | 0.114
CTCATCCC | -0.199
GGCGGGAA | -0.0118
ACCGCCCT | -0.117
CAGATTGC | 0.0178
AGGGATCG | -0.251
CAAGGCCA | -0.0166
CGTGAGGC | -0.0191
CACCTCAG | -0.102
CATCGATA | 0.237
GTGGGAAC | -0.0463
CAGCTTCC | -0.14
GGCGCCAC | -0.177
ACACCCCC | -0.289
CGCCGACG | -0.0697
GATTCCGC | -0.0196
TCTAGGCA | -0.102
CTGTCTAA | -0.014
CACGGTCG | -0.221
TCCAAGCA | 0.0609
GCTGGTCC | -0.102
AATATGTC | 0.111
ACTTGTAA | 0.0694
AAATAAGC | 0.12
CGCGAGGA | 0.00311
GGCTTTTA | -0.197
ACGGTGGG | -0.0405
ATCGTAAC | 0.0721
CGGTACCG | 0.0451
ATTTAGTC | 0.167
GCCAACTA | -0.181
CCATTCGC | -0.0811
TGTCGTAA | 0.0512
CAGAGGAA | -0.0763
CCCGTGTC | -0.228
CGAAAAGC | -0.107
AATCGCGA | 0.255
TATGTCAA | 0.228
CCGATCCG | -0.0465
AGACGGCA | -0.0106
ATGGCGCC | -0.199
AAGTCGCA | 0.0681
CCATAAGC | -0.0492
AAGCGGGC | -0.158
ATACCTCG | 0.125
CCTATCGC | -0.197
AAGCCCGC | -0.173
AGCCATCG | -0.0643
GACTGATC | -0.0446
GATTGACC | -0.0938
ACGAGCCA | 0.00329
AGTACCGA | 0.0518
AGAGCGCC | -0.0699
CCACAGGC | -0.379
GCCACAAC | 0.151
CCTGTGCA | -0.125
CAGACCAG | -0.0471

(next part)

Sequence	PBM E-score
ATAACCTG	-0.0425
ATGATTGA	0.107
ACAGCTGC	0.0437
CTGACCTA	-0.12
GGAGGGCC	-0.277
ACCACACA	0.175
CAATGGCA	0.128
AGCTATGC	-0.154
GCCGAACC	-0.0781
AACAATTA	0.323
GGTGGGAC	-0.282
AATTCTGT	0.0491
AACTATCC	-0.036
CTACTTAC	0.00279
CATCTGAC	-0.159
ACTATTTA	0.212
ATGGCGCA	0.137
CGATCGAA	0.108
AATCCGCG	-0.00263
CCAGTACC	-0.00753
GAGTAGTA	0.0528
CCTACCCG	-0.174
CACATAGC	0.00504
AGCCGGGG	-0.343
GCGTTTCA	0.0386

Sequence	PBM E-score
CCCTTGGA	-0.0842
CCAGCGTA	-0.0748
GGTGTCCA	0.0644
ACTGAAAG	0.114
CTACGCAC	-0.0999
ATTACACC	0.215
CGTTACAC	-0.0321
GAAGCTTC	-0.0855
AAAAATGC	0.106
GAATTCAA	0.119
GGCATCCA	-0.174
CCGAGGTA	-0.166
GGTTAGCA	0.041
AGATGCAC	-0.199
CAAAGTCA	0.0697
CTTGCCGC	-0.119
CTATTCGA	0.0725
GCTCCGAA	0.0384
AGTATTCC	0.135
CAGCACTA	-0.0742
TGTCCACA	0.0887
TATTTGCA	0.0501
AAGTATTG	0.11
CCCAGTTC	-0.0993
GGAGCCGA	-0.265

Sequence	PBM E-score
GTGTTTGA	0.204
ACACTGAT	0.0678
AGGAGATC	-0.0498
AGCCTTAA	-0.0527
AAGGGTAC	-0.0636
AACAAGTG	0.00726
GTGGAGCA	-0.179
AAGCATTG	0.00051
GAACGGAC	-0.0867
CGACCCAC	-0.219
AGGAAGCC	-0.0635
AATCTTCA	0.168
CCACGTAC	-0.105
CAGCGAGA	-0.0685
ACGTGAAG	0.0589
ATGAGCAC	-0.11
CGGGGAAG	-0.214
AGCTATAA	0.0858
AAAGAAAC	0.0615
ATTCTGGC	-0.121
GATCCAGC	-0.0342
AAAAATCC	0.136
CCATGATC	-0.121
ATCCACCC	-0.00023
TCAGTGAA	0.0905

Sequence	PBM E-score
ACCTGGCG	-0.211
GCTAGGGA	-0.055
GGCCTAAC	-0.0545
CAACTGCC	0.0195
CTAAAGAC	-0.0437
CCAAGACC	-0.144
CTTTTTCA	0.224
ATCGTTCA	0.129
AGATATAA	0.211
AACCTATT	0.0533
AGGGAACG	-0.134
ACTGATTG	-0.0496
CCCTAAGA	-0.0841
AGCTCGGG	-0.195
GTTAGAAC	0.0907
GAGTAAAC	-0.00262
AATGCTTC	0.0674
AGTACCAG	0.0195
AGTCTGTG	-0.215
GGACGTGA	-0.0912
ACCTCTGC	-0.127
AATCAGTA	0.0561
GCGATGTA	0.0567
CGGGCATA	-0.0686
AAGCTGCG	-0.0977

Sequence	PBM E-score
CACTACAC	-0.0713
TAACCGGA	0.00585
CTTTGGCC	-0.00142
CGTTTGGA	-0.123
TGATGTAA	0.145
ACCTTGAT	-0.0234
GTGGTTCA	0.191
TCAACCAA	0.071
AATGAGAC	-0.0964
GCGTCTCA	-0.0527
AACAGGGC	0.0684
ACCGCCCA	-0.208
AAGAGACA	0.191
AATGTGGG	0.194
ACTGGCCC	-0.0634
CCAGGGGG	-0.411
CCGGGGTA	-0.165
GCGAACAA	0.229
CTCAAATC	0.0664
CCACGGCC	-0.235
AACCAAAG	0.146
CTTTTTTA	0.147
CAACATAG	0.144
AGCATTCC	0.0235
CAAACCTA	0.181

Sequence	PBM E-score
ATTATGCG	0.297
ATAGGATC	0.0479
TGATATCA	0.109
CTATCACA	0.12
GCTTACCA	0.182
ACTGTGAG	0.0462
ACCTACTA	0.0411
TTACCGAA	0.202
ACGCATCG	0.0328
GTGATCTA	0.0493
CATACGTA	0.156
ACCACATA	0.184
GGGCATAA	0.0486
ACTCTTGA	-0.137
TCAATTAA	0.143
ATAACTCA	0.115
CTCTTTAA	-0.0493
GAACGTAC	-0.0517
CGTTGGGC	-0.108
GAACTCTA	-0.0396
GGAGCGAC	-0.113
CCAAAAAA	0.177
GCTCCCCC	-0.41
AGGCTGAT	-0.0918
CGGCATAC	-0.0416

Sequence	PBM E-score
AAAAACGT	0.137
AGGCTTAC	0.00475
ATTACACG	0.0795
AACAAATA	0.25
CACACGAC	-0.0959
AAGTTGTG	0.216
TAAACGCA	0.113
AGATGAAT	0.069
AGGGTAAG	0.0161
GCTAGGTA	-0.00222
TCCCACGA	-0.0193
CCGGACTA	0.0299
AGTATTGC	0.0437
CTCTGCGC	-0.0784
GGTACAAC	0.0551
CTAGCCTA	-0.122
CCTGACGA	0.03
CGCCCTTC	-0.232
TAGCGTAA	0.237
AGGACGGG	-0.293
TTCGGAAA	0.13
CAACCAAC	-0.074
AGCCTCCA	-0.245
ATTAGATA	0.178
GAATTTCA	0.0784

Sequence	PBM E-score
CTCATTGC	0.0306
CCCTCTCG	-0.246
CCAGGCAC	-0.17
AGTGCCGA	-0.05
GAGATAGC	-0.223
GAACTTCA	0.0514
GGTGTCAA	-0.0108
GCTAAAAC	0.0705
CGCCTCAC	-0.0806
CAGAGTTC	-0.167
CCCGCTAG	-0.135
CAAATGCG	0.134
ATTGAACC	0.1
AATATCCC	0.0746
ATTAGGGC	-0.0372
AACGCTGT	0.0505
AGCCGCAC	-0.111
CATCGTTC	0.0252
AACGTCAG	-0.161
ACATCTAC	0.126
GGGTTCGA	-0.0252
TGAGGGCA	-0.0975
GGGTCAAC	-0.0671
GAAGGAAA	-0.00387
GCAGTTAA	0.0944

Sequence	PBM E-score
ATTCCTTG	-0.113
TCCTACCA	-0.175
TGCTACAA	0.0484
AACCACTT	0.0563
AGCTTCCC	-0.191
CTCCTACA	0.0315
CCGGATTC	0.0756
CATACAAC	0.141
AACCTGGA	-0.0762
CCCCTCAG	-0.24
ATTCGCGG	0.158
ACATCTCC	0.0357
ATGCTCAC	-0.0747
CCTTCGCC	-0.324
CAATTTAG	0.106
TCTCATAA	0.0375
CGGGTCGC	-0.149
TAGGTAAA	-0.0801
TGTAGAAA	0.0253
